According to PubChem BioAssay AID1347423 (Functional Genomics Laboratory (NCATS/FGL), 2020):
About 210 (0.4%) of roughly 52,000 sequences were called active.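 Rule for the calls: active = gene whose silencing raises cell survival under the drug, median off-target-corrected z-score across its silencing RNAs 2 or more; inactive = the rest.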 Some of the results follow.

Test: Resistance to Poly (ADP-Ribose) Polymerase inhibitor: Gene Identification via Genome-wide siRNA Screen
Conditions: mouse BRCA2 R2336H ES cells, olaparib, CellTiter-Glo viability; stronger effect = higher value
How it was run: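 Mouse BRCA2 R2336H ES cells were reverse-transfected with siRNA (20 nM final), treated at 48 h with 500 nM olaparib, and read by CellTiter-Glo after 72 h. Scores: MAD-based z per siRNA, median per gene, seed off-target correction.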

Sequence | z-score
GGACUUCCAUUCUUUUUCATT against Tieg3 | inactive: -0.0534
GCUGGCCUUAUGUAAAUCUTT against Galc | inactive: -0.888
GCCACGACCUGGAACAACUTT against Taf6l | inactive: -0.423
GGAAGAUGAUGAUCAAACUTT against Zbed4 | inactive: -0.726
GCAUCAACUGCUGGUCUAGTT against 1700013B16Rik | inactive: -2.47
CGCACAGUGGACAUUUGAGTT against 4833432M17Rik | inactive: -1.3
GGACCUAUAAGAACAGUGATT against Psmf1 | inactive: -0.279
CCAUUGAAAAACUGGACAGTT against Olfr1463 | inactive: -0.419
GGAGAUUGAGGAGGAGGCUTT against Incenp | inactive: -1.07
GGAAUCAUUUGAAUCAGGATT against 1200016B10Rik | inactive: -0.765
GGCCACAUGAGAUUGCUUUTT against Tnfrsf13c | inactive: -1.16
GGACAAGAAGUGUGUAUACTT against Mrc2 | inactive: -1.37
GCGCGAGUUAUUGAUUCCGTT against Wee1 | inactive: -0.687
GGAUUUUAACAAAUUCUGCTT against 2410141M05Rik | inactive: 1.26
CGAAAAAAAGUCCAUAAAGTT against Mki67ip | inactive: -0.091
GGUAUGACACAGUCAUACUTT against V1rc17 | inactive: 0.784
GGUACUUUAUAGGAACAGUTT against 9830132G07Rik | inactive: -0.596
CCAUUGAAAUUUCCAUCUGTT against Baalc | inactive: -0.132
GGAAAGCUUCAAAAUGGUGTT against Foxj2 | inactive: 0.338
GGAGAGAGUUUUUGUUUUUTT against 2810012G03Rik | inactive: -0.18
GUUUGCCAGAACUCUGAAATT against Lyzs | inactive: -0.533
CCAGGUGUAACAAAAAAGATT against 2810047L02Rik | inactive: -2.25
GGAGCACCUAACAACUGUUTT against 1300002F13Rik | inactive: 0.0155
CCGCGUGUCUGCUAUCAUCTT against Wdfy1 | inactive: 0.865
GGGAUUCACUCUUCUUUAGTT against Og9x | inactive: 0.501
GCGAUACAAAGCUAAUCCCTT against 3110009E18Rik | inactive: -0.616

Reformatted in markdown: part of the list above

| Sequence | z-score |
| --- | --- |
| GGAUUUUAACAAAUUCUGCTT against 2410141M05Rik | inactive: 1.26 |
| CGAAAAAAAGUCCAUAAAGTT against Mki67ip | inactive: -0.091 |
| GGUAUGACACAGUCAUACUTT against V1rc17 | inactive: 0.784 |
| GGUACUUUAUAGGAACAGUTT against 9830132G07Rik | inactive: -0.596 |
| CCAUUGAAAUUUCCAUCUGTT against Baalc | inactive: -0.132 |
| GGAAAGCUUCAAAAUGGUGTT against Foxj2 | inactive: 0.338 |

Following part

Sequence | z-score
GCCUAAUAAGGAGAAACCATT against Car9 | inactive: -0.731
CGAUUCAUCUGUGUUCGUGTT against Bai1 | inactive: 1.19
GGAGUCCAUUUCAUGUUUUTT against Tiparp | inactive: -0.0426
GGAGAACCUCAAUGACGUGTT against Prtn3 | inactive: 2.47
GCAUCAGAUUAUCUCACUGTT against Mtrf1l | inactive: -0.226
CCUAUCAAAUUCAGAGGUUTT against 5830482F20Rik | inactive: -1.88
GGGCAUCAAUUUAAGAAGCTT against D430015B01Rik | inactive: -0.0149
CCAAUCUACUCCUAAGAACTT against V1rg11 | inactive: -0.209
CCAUGUCAGUUACAAUGCGTT against A530015O12Rik | inactive: 0.942
GGGUCUCCGAAACUACUUATT against 5730537D05Rik | inactive: -0.581
GGAAAGUGUGCUUCCAAUUTT against Olfr1138 | inactive: 0.265
GGAUCACAUCGAGAAAACCTT against Utrn | inactive: -1.1
GCUAAACGAGAGAAAAAGATT against Arhgef10 | inactive: -1.11
GGCAUAUCAGACACCUCUUTT against Olfr697 | inactive: 0.335
CCAAUGGUUUAAGCCUAGCTT against 1300002K09Rik | inactive: 0.279
CCCUGACUUAAUAAGAGACTT against B130017P16Rik | inactive: 1.5
GGUGGUGGUUGGUAAUGAUTT against Kif4 | inactive: 0.918
GGCAAAACAACUUUAUUCCTT against Ucp2 | inactive: 1.59
GGAGCUCCAUGACAUGUUUTT against Stx3 | inactive: 2.29
GGGAGAAAAUCCAUUAUAUTT against AV273951 | inactive: 2.38
CCCUUUCUUUCAUGAGCCGTT against Dguok | inactive: -0.485
GGCAGAAAGCAAAAUGUUUTT against Gata3 | inactive: 0.838
GGAACAGUCGGCCAUUUAATT against 6530411B15Rik | inactive: -1.96
GGUACGACAAAGAAAAACCTT against Rnmt | inactive: -0.26
CCCUUAUCCUCACGUCAGATT against Spic | inactive: -1.15
CGUCAUCUUAUCAUGUAUUTT against Camk2d | inactive: 1.41

Sequence | z-score
GGUGUUCAGACUACCCUCUTT against Serpina3m | inactive: -1.88
GGUAAUCAAGACCCACAAATT against Shank3 | inactive: 1.36
CCUUAUCAAAAAGCUCUCATT against Lats2 | inactive: 0.703
GGGAAGAUGGAAGACUACGTT against Ramp2 | inactive: 0.127
GGACCUCAGCGAAGACAAUTT against BC034097 | active: 2.03
GGUCAAAAGAAACAGGUGUTT against 2310047I15Rik | inactive: 0.438
GGGAAGGAACUUGAUUUGUTT against D930040M24Rik | inactive: -0.651
GCACCGUGACUCAGAUAGATT against Slco1c1 | inactive: 2.45
GCCUCUAUGUUACCACCUCTT against 9030611O19Rik | inactive: 1.63
GGUAACUGCUUGCUACAGGTT against Npm3 | inactive: -0.0411
GGACUUACUCCACAGCCUATT against Tbp | inactive: 2.54
GGAGGGACUUACCACAAGGTT against Timeless | inactive: -0.842
GGGAGAAGGUAAGUGCAUGTT against 4933417O08Rik | inactive: -0.463
CCGGUUAUGUUAAAGGCAATT against Tlk1 | inactive: 0.123
GGAUUCCUGCUUUCUUUGCTT against Rnf26 | inactive: 0.804
GGAGCAGAUGGUCCUGUUATT against Eda | inactive: -2
GCAAAGUACGCCAAGAUGGTT against Cplx1 | inactive: -0.564
GGUCGAGAGGUUGAAAGUATT against 6030405P05Rik | inactive: -1.69
GCAACUAUGAACAAGAAUCTT against Grm3 | inactive: 0.304
GGUUAUAGCUUCAAUAGCUTT against Bphl | inactive: 0.448
GGUAGAAACGGCUCUAUUATT against Atp6v1b2 | inactive: -1.97
GGCCCAGUUGAUCAGCUAUTT against AI428936 | inactive: -0.0466
GGACUACCUACUGAGCAACTT against Disc1 | inactive: 1.28
GGUGUAAAAUGUAAAGCUGTT against Hpgd | inactive: 2.28
GGGAAGAGUCUUGUUUAAATT against Pvrl3 | inactive: 0.355
GGCUUUGCUGAAUGUCUCATT against G630049C14Rik | inactive: 0.469

Sequence | z-score
GGCUCUCUGGAGAAUCAUGTT against Slc25a28 | inactive: -0.0865
CCCAUAAUGGACUAAAACUTT against Tjp2 | inactive: 1.18
GGAGACGUGUCAACAUUUUTT against Tob1 | inactive: -2.23
GGAGCUGGUCUUUUUUUUUTT against Rhobtb2 | inactive: 0.54
GCUCCUGAUUUUGACUAUCTT against D1Ertd622e | inactive: 0.806
GCAGCAGCAGGUGUCUAUGTT against Nanos3 | inactive: -0.485
GGGUGAAUUCUGUCUAUGUTT against 3732409C05Rik | inactive: -1.2
CCAAGUCUAAUGUUUACAATT against BC031853 | inactive: 2.29
GGCACAUGGCAAUUCAUCATT against 1810018L02Rik | inactive: -0.507
GGACAAAUUACAGGAUUAATT against Sod1 | inactive: 2.07
GGAAGCUGAACGAAAAUAATT against 1200020A08Rik | inactive: -1.55
GCGUAUGUACCGAUGGCAGTT against Mocs2 | inactive: 1.88
GGUCCAAAAGUUGUUUCAATT against Mgea5 | inactive: -0.111
GCUUUGAUGGAUUCUAAUCTT against Hdh | inactive: 0.178
GCCUAGCUAUAUUAAACUCTT against Inpp5e | inactive: 0.493
GGUCUAAUCCAGAAUCAGUTT against Ppm1f | inactive: -0.151
GGUACUGAAGGAAAUCUCUTT against Nek11 | inactive: -0.686
GGAAUUCUUAGCCAAUGCCTT against 4930500E24Rik | inactive: 0.475
GCCCUCCUAUAUCGUAUGGTT against Fbxo12 | inactive: 0.827
GGUGGAUCAGGAAGUGAACTT against 4832412O06Rik | inactive: -2.51
GGCUAUUCAGUAUGCCAGATT against Atm | inactive: -0.262
CCGUUUCAUUUCAGGGAGGTT against Phf1 | inactive: 0.493
GGAAAAAUUCGAGGGACUGTT against Dscr1l1 | inactive: 1.66
GGUGGACCAUUUCAGGUUCTT against B4galt7 | inactive: -0.656
GGACCUCAUGGAGCUCCAATT against Tnnt3 | inactive: -0.501
